Reference: article PMC3661362
These are yes or no findings as the source states them, for the method shown. Binding seen in cells or lysates may run through a third protein.

Amino acid sequences for entries named in this document (tags omitted). Residues count along the entry.
UniProt Q69ZK9, residues 15-836: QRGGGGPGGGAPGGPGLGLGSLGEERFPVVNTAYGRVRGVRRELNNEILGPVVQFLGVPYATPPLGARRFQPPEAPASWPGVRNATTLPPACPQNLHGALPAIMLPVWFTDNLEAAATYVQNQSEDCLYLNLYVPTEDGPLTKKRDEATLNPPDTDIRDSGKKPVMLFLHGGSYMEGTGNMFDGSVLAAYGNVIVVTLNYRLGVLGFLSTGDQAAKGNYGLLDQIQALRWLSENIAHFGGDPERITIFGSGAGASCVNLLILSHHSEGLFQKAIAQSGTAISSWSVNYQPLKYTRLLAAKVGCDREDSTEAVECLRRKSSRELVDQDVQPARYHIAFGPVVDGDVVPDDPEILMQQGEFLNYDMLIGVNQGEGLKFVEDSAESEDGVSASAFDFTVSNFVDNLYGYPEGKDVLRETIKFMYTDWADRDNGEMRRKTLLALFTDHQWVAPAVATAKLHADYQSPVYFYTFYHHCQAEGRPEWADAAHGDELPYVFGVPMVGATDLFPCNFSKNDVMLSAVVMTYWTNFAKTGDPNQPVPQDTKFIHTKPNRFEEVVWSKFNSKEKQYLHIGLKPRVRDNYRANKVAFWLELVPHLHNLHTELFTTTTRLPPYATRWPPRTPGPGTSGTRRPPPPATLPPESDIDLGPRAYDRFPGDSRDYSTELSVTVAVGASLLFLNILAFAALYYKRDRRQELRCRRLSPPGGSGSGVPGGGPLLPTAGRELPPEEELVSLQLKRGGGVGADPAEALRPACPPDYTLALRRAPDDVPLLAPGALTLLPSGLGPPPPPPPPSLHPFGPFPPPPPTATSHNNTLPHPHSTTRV

Tests used:
[1] = target: T1, KCC2, endogenous in mouse cerebral cortex (mouse (endogenous in mouse cerebral cortex)) (UniProt Q91V14); assay: co-IP; total mouse cerebral cortex lysate (2-3 month old mouse); immunoprecipitated with rabbit anti-NL2, rabbit anti-KCC2 or normal rabbit IgG on Dynabeads sheep anti-rabbit IgG, overnight at 4°C; probed with rabbit anti-KCC2 or anti-NL2
T1 sequence: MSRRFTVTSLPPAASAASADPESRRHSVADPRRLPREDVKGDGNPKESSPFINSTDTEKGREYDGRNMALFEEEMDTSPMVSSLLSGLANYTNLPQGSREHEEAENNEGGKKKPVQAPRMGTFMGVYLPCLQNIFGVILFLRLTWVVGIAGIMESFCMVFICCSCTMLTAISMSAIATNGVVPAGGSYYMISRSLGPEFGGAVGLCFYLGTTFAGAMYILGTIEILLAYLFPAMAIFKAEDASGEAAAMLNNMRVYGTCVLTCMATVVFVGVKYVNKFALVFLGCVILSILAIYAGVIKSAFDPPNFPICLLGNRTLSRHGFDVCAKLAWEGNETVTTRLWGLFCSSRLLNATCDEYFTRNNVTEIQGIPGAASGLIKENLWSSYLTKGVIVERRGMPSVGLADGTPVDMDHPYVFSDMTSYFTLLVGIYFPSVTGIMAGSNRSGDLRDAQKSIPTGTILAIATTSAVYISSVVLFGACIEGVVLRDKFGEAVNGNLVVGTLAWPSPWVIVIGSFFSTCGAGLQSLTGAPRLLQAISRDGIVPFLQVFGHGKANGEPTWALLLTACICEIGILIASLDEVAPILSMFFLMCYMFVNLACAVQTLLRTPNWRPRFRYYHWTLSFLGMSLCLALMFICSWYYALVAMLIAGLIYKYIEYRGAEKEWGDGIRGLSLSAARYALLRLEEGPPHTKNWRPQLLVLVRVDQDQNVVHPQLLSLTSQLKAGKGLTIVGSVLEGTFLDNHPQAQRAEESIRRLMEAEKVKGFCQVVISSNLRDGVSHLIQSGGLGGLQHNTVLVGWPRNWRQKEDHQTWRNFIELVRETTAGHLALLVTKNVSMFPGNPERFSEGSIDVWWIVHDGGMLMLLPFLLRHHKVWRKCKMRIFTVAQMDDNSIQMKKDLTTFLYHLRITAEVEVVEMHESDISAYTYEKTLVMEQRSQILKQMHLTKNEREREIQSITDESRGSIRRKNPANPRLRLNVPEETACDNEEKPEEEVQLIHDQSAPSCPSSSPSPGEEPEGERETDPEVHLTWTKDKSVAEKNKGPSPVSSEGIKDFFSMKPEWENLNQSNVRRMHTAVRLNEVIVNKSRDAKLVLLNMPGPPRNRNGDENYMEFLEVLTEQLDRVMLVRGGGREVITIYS

[2] = target: HA-tagged WT mouse neuroligin-2 (mouse) (UniProt Q69ZK9); assay: co-IP; HEK 293T cells co-transfected with HA-NL2 and KCC2; lysate in Pierce IP buffer with protease and phosphatase inhibitors; about 2 mg lysate with Dynabeads and 2 ug mouse anti-HA (or normal mouse IgG) overnight at 4°C; blotted with rabbit anti-KCC2 and anti-NL2
[3] = target: Neuroligin-2, endogenous in mouse cerebral cortex (mouse (endogenous in mouse cerebral cortex)) (UniProt Q69ZK9); assay: co-IP; total mouse cerebral cortex lysate (2-3 month old mouse); immunoprecipitated with rabbit anti-NL2, rabbit anti-KCC2 or normal rabbit IgG on Dynabeads sheep anti-rabbit IgG, overnight at 4°C; probed with rabbit anti-KCC2 or anti-NL2

Neuroligin-2, endogenous in mouse cerebral cortex (from UniProt Q69ZK9 15-836)
binding [1]: no binding

B1: Rat KCC2 (potassium-chloride transporter 2) (protein, UniProt Q63633 1-1139)
chain: MSRRFTVTSLPPAASAASADPESRRHSVADPRRLPREDVKGDGNPKESSPFINSTDTEKGREYDGRNMALFEEEMDTSPMVSSLLSGLANYTNLPQGSKEHEEAENNEGGKKKPVQAPRMGTFMGVYLPCLQNIFGVILFLRLTWVVGIAGIMESFCMVFICCSCTMLTAISMSAIATNGVVPAGGSYYMISRSLGPEFGGAVGLCFYLGTTFAGAMYILGTIEILLAYLFPAMAIFKAEDASGEAAAMLNNMRVYGTCVLTCMATVVFVGVKYVNKFALVFLGCVILSILAIYAGVIKSAFDPPNFPICLLGNRTLSRHGFDVCAKLAWEGNETVTTRLWGLFCSSRLLNATCDEYFTRNNVTEIQGIPGAASGLIKENLWSSYLTKGVIVERRGMPSVGLADGTPVDMDHPYVFSDMTSYFTLLVGIYFPSVTGIMAGSNRSGDLRDAQKSIPTGTILAIATTSAVYISSVVLFGACIEGVVLRDKFGEAVNGNLVVGTLAWPSPWVIVIGSFFSTCGAGLQSLTGAPRLLQAISRDGIVPFLQVFGHGKANGEPTWALLLTACICEIGILIASLDEVAPILSMFFLMCYMFVNLACAVQTLLRTPNWRPRFRYYHWTLSFLGMSLCLALMFICSWYYALVAMLIAGLIYKYIEYRGAEKEWGDGIRGLSLSAARYALLRLEEGPPHTKNWRPQLLVLVRVDQDQNVVHPQLLSLTSQLKAGKGLTIVGSVLEGTFLDNHPQAQRAEESIRRLMEAEKVKGFCQVVISSNLRDGVSHLIQSGGLGGLQHNTVLVGWPRNWRQKEDHQTWRNFIELVRETTAGHLALLVTKNVSMFPGNPERFSEGSIDVWWIVHDGGMLMLLPFLLRHHKVWRKCKMRIFTVAQMDDNSIQMKKDLTTFLYHLRITAEVEVVEMHESDISAYTYEKTLVMEQRSQILKQMHLTKNEREREIQSITDESRGSIRRKNPANTRLRLNVPEETACDNEEKPEEEVQLIHDQSAPSCPSSSPSPGEEPEGEGETDPEKVHLTWTKDKSAAQKNKGPSPVSSEGIKDFFSMKPEWENLNQSNVRRMHTAVRLNEVIVNKSRDAKLVLLNMPGPPRNRNGDENYMEFLEVLTEQLDRVMLVRGGGREVITIYS
binding [2]: no binding

B2: KCC2, endogenous in mouse cerebral cortex (protein, UniProt Q91V14 1-1138)
chain: T1 sequence
binding [3]: no binding
